# Results published in PubChem BioAssay AID1347426 (Functional Genomics Laboratory (NCATS/FGL), 2020).
# Hit rate of the full screen: of about 31,000 sequences, about 1,400 (4.5%) were called active.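 How the source made its calls: active means median seed-adjusted z-score above 1 or below -1; inactive means the rest.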 The list shows a part of the results.
# Assay: Novel Modifiers of Survival Motor Neuron (SMN) Protein: Gene Identification via Genome-wide siRNA Screen
# Settings: HEK293T SMN2-luciferase reporter, siRNA knockdown, 72 h; actives lie on both sides
# From the text: Spinal muscular atrophy (SMA) is the most common neuromuscular autosomal recessive disorder and one of the leading genetic causes of infant death. SMA results from mutations inducing loss of function or deletion in the survival of motor neuron-1 gene (SMN1), leading to deficiency of the survival motor neuron (SMN) protein. Although a second nearly identical gene, SMN2, is retained in humans, its expression primarily produces an aberrantly spliced isoform that is largely unstable and quickly degraded. We performed a genome-wide RNAi screen using a cell-based reporter assay to identify genes and pathways that modulate SMN protein stability. The screen identified over 200 genes that led to the greatest increase or decrease in luciferase expression.
# Using HEK293T cells stably expressing a luciferase reporter that combines the promoter and splicing based cassettes in tandem with the major portion of the native SMN2 cDNA with luciferase, we performed a genome-wide RNAi screen to identify modulators of SMN protein levels. Luciferase is expressed when full-length SMN protein is generated with luminescence signal proportional to SMN protein levels. Our luciferase-based reporter assay was used to screen Ambion Silencer Select Human Druggable Genome siRNA library (10418 genes, 3 unique siRNAs per gene) using lipid-based reverse transfection.
# Briefly, 1 pmol of each siRNA was spotted to a well of a 384-well plate (Corning, Corning, NY) and 20 microL of serum-free DMEM containing […] of Lipofectamine RNAiMax (Life Technologies, Carlsbad, CA) was then added to each well. Transfected cells were maintained at 37 degrees C in 5% CO2 for 72 hours, 20 microL of ONE-Glo Reagent (Promega) was added to wells for luciferase quantification. Raw luminescence reads were normalized to Ambion(R) Silencer(R) Negative Control #2 siRNA, then log10 transformed. A robust statistical measure of median absolute deviation (MAD) to standardize siRNA activities from each screen. Common Seed Analysis was used to help prioritize clean hits as opposed to those appearing to arise from seed based off-target effects. Candidate modulators were defined as the genes having a MAD score greater than 1.0 or less than -1.0.
row,Sequence,median seed-adjusted z-score
1,GGAUGCCCACUGUAUCAUATT against MYST2,active: -1.46
2,AGGUGGUGCAUGCAUUUGATT against RAD51L3,inactive: 0.155
3,CAACACCAGCUAAUCCAUATT against ZNF345,inactive: -0.275
4,GGUAUUCGUGGACACCGUATT against RNASEH2A,inactive: -0.158
5,GCCUUUCUCUCGUACAACATT against TMTC1,inactive: -0.147
6,GUGUAAGAACUACUACAGATT against HPR,inactive: 0.237
7,GCUGAACAGUAUUACAGAUTT against TSN,inactive: 0.572
8,GGGUAGAAUCAGUCAAGUUTT against ZNF614,inactive: 0.0971
9,GAAAAUCGAAAGACUAAAATT against UTP11L,inactive: -0.755
10,CCAAAAGAAUAUCCGCUAATT against NLK,inactive: 0.256
11,CAUCUAAACUAAGUCCCAATT against RGS4,inactive: 0
12,CCAUCUUCGAGAACCUCUGTT against CLDN15,inactive: 0.973
13,CAGUCUUGAUUUAACCUUATT against HAGH,inactive: 0.647
14,GGAAAACUCGUGUCCAUCATT against FARP1,inactive: -0.487
15,CCAGUACCUUUGCAGGUUATT against tAKR,inactive: -0.356
16,GCAUCAGCUCACAACAAAATT against SF3B4,active: -2.56
17,GGAUUUUGGAGAUUACCAATT against TLN1,inactive: -0.0619
18,GGACCAAAGCAGUAUCCUUTT against NDUFB8,inactive: -0.468
19,GCACUUUACCAUUAGACAATT against LDB2,inactive: -0.0847
20,GCUAUGUAAUUAACGGCAATT against ACAD11,inactive: -0.679
21,GCAGGGCAGUAAUCCUCAUTT against DLX6,inactive: 0.0275
22,GGCAAAUGGUUGAGACUGATT against YWHAE,active: 1.38
23,GAAUCAUCAAAACGGAAUATT against SEMA3D,inactive: -0.0201

row,Sequence,median seed-adjusted z-score
1,GGACCUAGACCAAAGAACATT against ING4,inactive: -0.152
2,GCAUGUUGUUGAUCAUGGATT against MAFB,inactive: 0.674
3,CAAUGGAUUUGCAAUCUUUTT against SLCO4C1,inactive: -0.116
4,GAACUAUACCGAAAAUGAATT against GLUD2,inactive: -0.0225
5,GCGUGAUUCUGCUCUAUAATT against ABCC9,inactive: 0.376
6,CCAUUGGCCUGGAGGACUUTT against KCNK7,inactive: 0.0523
7,UGACCGAGAAGGUAGACAATT against BCL2L11,inactive: -0.0521
8,CUACCAUUUUCAUCGAGGATT against FREM3,inactive: -0.565
9,GAAUAUGAAACAUUCGAUATT against GLRX3,inactive: 0.0784
10,GCCUCUCACAUCUAUGGUATT against ITIH4,inactive: 0.64
11,CCCUGAAAAUUUUCCGCAATT against PDIA4,inactive: -0.499
12,GUAUCGAUGCAGUUUAUGATT against MMP16,inactive: 0.144
13,GGUUCCGCAUCAUCCAUGATT against ANKK1,inactive: -0.288
14,AGAUACAAGUUUCCGAACATT against MUPCDH,inactive: -0.329
15,ACUUAGCACUUUAUAUUUATT against DUSP2,inactive: 0.576
16,CCUGAAGUACUGUACCGCATT against HECTD3,inactive: 0
17,CGAAUCCUCUACUACAUCUTT against LENG8,inactive: -0.00539
18,GAGCUGCAAUGAUCAUCGATT against LIMCH1,inactive: 0.125
19,CAUCACAACUCUUGUCUUATT against AJAP1,inactive: 0.488
20,CAGACAGUUUAGUUCAGAATT against ZNF654,inactive: 0.199
21,GGAGAUGUAGUUUCAAGAATT against SAV1,inactive: 0.766
22,CCCAGAUCAUAUACUCCUATT against LYPLAL1,inactive: -0.425
23,CGGAAAUCCUGAAACCUCATT against ZNF79,inactive: -0.351

row,Sequence,median seed-adjusted z-score
1,GGAUGACACCAGCCUCUAUTT against DUSP27,inactive: -0.162
2,GGGCAUACCUGACUAUCCATT against ITIH4,inactive: 0.64
3,GAACGGACAUUGUUUAUGATT against PDGFRL,inactive: 0.0203
4,CGUUUCAGUCGUUUCAAAATT against POLR2D,active: -3.79
5,CGUCAUUUUUGGUACAAGUTT against DAB2,inactive: 0.678
6,GAAUGUUGCAAGUCUAGGATT against UQCR,inactive: 0.193
7,GCAUUGACUACGUGCUUUATT against SMPD2,inactive: -0.406
8,GCAUAGAUGUCUUUGAGGATT against HGD,inactive: -0.0401
9,AGCCCUACAUGACCCAGGATT against KCNJ4,inactive: -0.492
10,CAUUCUUAAUUACAGUGGATT against TXNDC9,inactive: -0.176
11,AGAUGAAGCAAUAGAUUAUTT against CETN3,inactive: -0.0815
12,CCUAGAUACUUGCCGCAAATT against YARS2,inactive: 0.0901
13,CACUAUCGAUGUGAUCAUUTT against SGMS2,inactive: -0.492
14,CAACUGGUUCCCUAAGAAATT against TAGLN2,inactive: 0.432
15,GCACAGGUCCUAUAGGAGATT against MGAM,inactive: 0.312
16,GCAAUUCCAUGAUAAGGAATT against MMP20,inactive: 0.0623
17,AAGCCUUGGUCUAAAGGUATT against CD1B,inactive: -0.407
18,GGAUCCAUGCAGAACAUUUTT against USP51,inactive: -1
19,CUUCCUAGGUUACAAGUAATT against FAM84B,inactive: -0.431
20,GACCCAAAGUUUGCAACAATT against DUSP11,inactive: -0.0184
21,GGAUAACUGGGAUGACGAUTT against EIF3J,inactive: -0.411
22,ACAAUUCGCAGAGAGCUUATT against MOAP1,inactive: 0.0405

# Some of the entries so far, tab-delimited.
row	Sequence	median seed-adjusted z-score
13	CACUAUCGAUGUGAUCAUUTT against SGMS2	inactive: -0.492
14	CAACUGGUUCCCUAAGAAATT against TAGLN2	inactive: 0.432
15	GCACAGGUCCUAUAGGAGATT against MGAM	inactive: 0.312
16	GCAAUUCCAUGAUAAGGAATT against MMP20	inactive: 0.0623
17	AAGCCUUGGUCUAAAGGUATT against CD1B	inactive: -0.407
